Data as given in PubChem BioAssay AID1259289 (Sanger Institute, 2017)

Test: 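Find kinases whose loss adds to targeted drugs in killing bowel cancer cells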 (primary screen)
Cell system: human LS513 colorectal cancer cells
Reagent: siRNA pool against human genes
Treatment: anchor drug BYL719 at 1 µM, cetuximab at 5 µg/ml or trametinib at 10 nM, or DMSO vehicle alone; exposure time not given
Detection: 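Cell survival as a fraction of the non-targeting pool, replicate means; robust z-score for silencing alone under DMSO; synergy score for each of BYL719, cetuximab and trametinib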
Direction: robust z-score, siRNA alone (DMSO): higher = more viable cells; strongly negative means essential; viability with DMSO vs control: higher = more viable cells; synergy score with BYL719: higher = stronger combined killing with BYL719; synergy score with cetuximab: higher = stronger combined killing with cetuximab; synergy score with trametinib: higher = stronger combined killing with trametinib
Call rule: 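Called essential when silencing alone under DMSO gives a robust z-score below -3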
Meaning of the calls: active = essential (knock-down alone); inactive = not essential
This is an unselected part of 794 reagents tested. In the full data, 16 (2%) got an active call. 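Active marks cell loss from silencing alone; drug synergy shows only in the synergy scores, not the calls.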 Viability is capped at 1. Not stated in the record: the amount of reagent, the time to read-out.

target	robust z-score, siRNA alone (DMSO)	viability with DMSO vs control (fraction of control)	synergy score with BYL719	synergy score with cetuximab	synergy score with trametinib	outcome
ALDH18A1	0.561	1	-0.0352	-0.0138	0.0065	inactive
PRKX	0.561	1	-0.134	-0.0968	0.0297	inactive
TRIB3	0.528	0.995	0.0646	-0.101	-0.0614	inactive
PIK3C2A	-3.55	0.416	-0.108	-0.00737	-0.0158	active
EPHB3	-0.792	0.808	-0.0182	-0.0431	0.0436	inactive
MAP3K12	-0.045	0.914	-0.101	-0.00227	0.0462	inactive
STK33	0.399	0.977	0.056	0.13	0.0295	inactive
CAMKV	0.543	0.997	0.0568	0.127	0.054	inactive
NR2F2	0.561	1	0.127	0.0131	0.0188	inactive
SRC	0.561	1	0.0278	0.0365	0.00498	inactive
CAMK2D	0.561	1	-0.134	-0.0968	-0.0853	inactive
NME4	0.561	1	-0.108	-0.0968	-0.0161	inactive
TNNI3K	0.561	1	-0.134	-0.0968	0.00701	inactive
WNK4	0.561	1	-0.134	-0.0968	0.0593	inactive
HUS1	0.561	1	-0.0738	-0.0837	0.0635	inactive
BMP2K	-0.271	0.882	-0.21	-0.00465	0.0534	inactive
MAPK12	0.561	1	-0.134	-0.0968	-0.0301	inactive
TSSK1B	0.32	0.966	-0.000317	0.179	0.038	inactive
ULK4	0.0102	0.922	0.237	0.0548	0.0624	inactive
PRPS1L1	0.561	1	0.0679	0.0044	0.0188	inactive
